Laboratory results: PubChem BioAssay AID1259405 (NCATS, 2018)
This is a random part of about 50,000 reagents. Of all reagents, about 4,000 (8%) were called active. 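Mouse siRNA library applied to hamster cells; one well for each siRNA.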 Reagents against one gene are numbered here. No sequences are given here.

Assay: 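Silenced genes that increase secreted GFP made by CHO cells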 (primary screen)
Cells: Chinese hamster CHO-K1 ovary cells with stable secreted eGFP expression
Knock-down reagent: single siRNA against mouse genes, 0.8 pmol siRNA per well (2 µl of 400 nM stock)
Timing: 3 days
Detection: 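Percent of the per-plate non-targeting control median for intracellular GFP per well by laser scanning cytometry and for cell viability by ATP luminescence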
Direction: GFP, % of control: higher = more GFP per well, higher productivity; viability (ATP), % of control: higher = more viable cells (more ATP)
Call rule: 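Called active when intracellular GFP, relative to negative control, is at or above 120%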

gene | reagent no. | GFP, % of control | viability (ATP), % of control | Outcome
Tafa4 | 1 | 86.5 | 63.2 | inactive
Tafa4 | 2 | 74.4 | 87.9 | inactive
Tafa4 | 3 | 123 | 119 | active
Mark1 | 1 | 35.4 | 54 | inactive
Mark1 | 2 | 72.5 | 76.9 | inactive
Slc26a11 | 1 | 79.1 | 56.7 | inactive
Slc26a11 | 2 | 78.1 | 85.7 | inactive
Slc26a11 | 3 | 113 | 99.3 | inactive
Krt23 | 1 | 89.2 | 78.9 | inactive
Krt23 | 2 | 70.1 | 55 | inactive
Adamts13 | 1 | 120 | 102 | active
Adamts13 | 2 | 71.1 | 54.5 | inactive
Adamts13 | 3 | 46.2 | 37.4 | inactive
Tlx1 | 1 | 104 | 96.1 | inactive
Tlx1 | 2 | 88.1 | 97.6 | inactive
Idua | 1 | 59.3 | 94.4 | inactive
Idua | 2 | 59.1 | 110 | inactive
Idua | 3 | 81.9 | 92.6 | inactive
Scgb3a2 | 1 | 73 | 45.5 | inactive
Scgb3a2 | 2 | 74.8 | 70.9 | inactive
Scgb3a2 | 3 | 77.2 | 80.7 | inactive
Parm1 | 1 | 133 | 83.9 | active
Parm1 | 2 | 73.1 | 97.7 | inactive
Parm1 | 3 | 132 | 134 | active
Serpinb11 | 1 | 58.4 | 85.9 | inactive
Serpinb11 | 2 | 42.7 | 54.1 | inactive
Serpinb11 | 3 | 148 | 84.1 | active
Abca9 | 1 | 61.6 | 77.5 | inactive
Abca9 | 2 | 76.8 | 48.7 | inactive
Abca9 | 3 | 114 | 88.4 | inactive
Sema3c | 1 | 75.9 | 78.3 | inactive
Sema3c | 2 | 69.7 | 79.5 | inactive
Sema3c | 3 | 58.5 | 50.7 | inactive
Nup54 | 1 | 66 | 65.1 | inactive
Nup54 | 2 | 104 | 62.8 | inactive
Nup54 | 3 | 79.4 | 97.5 | inactive
Ggcx | 1 | 63.5 | 79 | inactive
Ggcx | 2 | 43.2 | 65 | inactive
Ggcx | 3 | 53.5 | 65 | inactive
Tcerg1 | 1 | 137 | 76.9 | active
Tcerg1 | 2 | 102 | 120 | inactive
Tcerg1 | 3 | 85.6 | 97.3 | inactive
Slx9 | 1 | 64.3 | 77.6 | inactive
Slx9 | 2 | 107 | 57.2 | inactive
Slx9 | 3 | 51.1 | 74.1 | inactive
Or2y1f | 1 | 91.1 | 76.3 | inactive
Or2y1f | 2 | 121 | 76.6 | active
Or2y1f | 3 | 82.7 | 110 | inactive
Or13a22 | 1 | 64 | 57.4 | inactive
Or13a22 | 2 | 82.9 | 104 | inactive
Or13a22 | 3 | 55.2 | 75.7 | inactive
Isl1 | 1 | 70.3 | 90.2 | inactive
Isl1 | 2 | 170 | 133 | active
Isl1 | 3 | 60 | 88 | inactive
C1qa | 1 | 58 | 59.8 | inactive
C1qa | 2 | 104 | 54.8 | inactive
C1qa | 3 | 83.1 | 78.5 | inactive
Gm4894 | 1 | 57.6 | 43.4 | inactive
Gm4894 | 2 | 81.3 | 100 | inactive
Gm4894 | 3 | 58.2 | 77.9 | inactive
Mtmr2 | 1 | 164 | 92.7 | active
Mtmr2 | 2 | 119 | 70.7 | inactive
Mtmr2 | 3 | 88.7 | 94.9 | inactive
Bcas3 | 1 | 108 | 127 | inactive
Bcas3 | 2 | 52.7 | 70.9 | inactive
Bcas3 | 3 | 129 | 158 | active
Tas2r137 | 1 | 52 | 81.2 | inactive
Tas2r137 | 2 | 93.1 | 94.8 | inactive
Tas2r137 | 3 | 83.6 | 75.2 | inactive
Tubgcp3 | 1 | 76.2 | 67.6 | inactive
Tubgcp3 | 2 | 100 | 128 | inactive
Zup1 | 1 | 64 | 65.3 | inactive
Zup1 | 2 | 41.5 | 73 | inactive
Zup1 | 3 | 84.4 | 98.7 | inactive
Ttc39a | 1 | 58 | 68.4 | inactive
Ttc39a | 2 | 57.7 | 57 | inactive
Ttc39a | 3 | 66.5 | 89.4 | inactive
Tmem252 | 1 | 92.5 | 57.7 | inactive
Tmem252 | 2 | 230 | 143 | active
Tmem252 | 3 | 156 | 73.7 | active
Ghdc | 1 | 89.4 | 84.8 | inactive
Ghdc | 2 | 75.6 | 80.1 | inactive
Ghdc | 3 | 82.4 | 92.2 | inactive
Zfp212 | 1 | 97.5 | 137 | inactive
Zfp212 | 2 | 73.5 | 106 | inactive
Zfp212 | 3 | 49.5 | 48.3 | inactive
Emid1 | 1 | 75.4 | 70.7 | inactive
Emid1 | 2 | 86 | 61 | inactive
Emid1 | 3 | 98 | 63.8 | inactive
Or8k22 | 1 | 105 | 78.9 | inactive
Or8k22 | 2 | 65.4 | 68.3 | inactive
Or8k22 | 3 | 93.5 | 103 | inactive
Etos1 | 1 | 108 | 105 | inactive
Etos1 | 2 | 126 | 99.3 | active
Etos1 | 3 | 137 | 106 | active
Cxcl16 | 1 | 113 | 73.6 | inactive
Cxcl16 | 2 | 96.7 | 78.9 | inactive
Hgd | 1 | 66.7 | 62.5 | inactive
Hgd | 2 | 81.1 | 55.2 | inactive
Hgd | 3 | 66.7 | 71.2 | inactive
Fhip1a | 1 | 73.1 | 55 | inactive
Fhip1a | 2 | 79.7 | 69.6 | inactive
Fhip1a | 3 | 79.3 | 83 | inactive
Hs6st3 | 1 | 93.3 | 100 | inactive
Hs6st3 | 2 | 112 | 106 | inactive
Hs6st3 | 3 | 133 | 130 | active
P2ry13 | 1 | 111 | 67.8 | inactive
P2ry13 | 2 | 103 | 57.4 | inactive
P2ry13 | 3 | 84.5 | 86.6 | inactive

Sorted by “GFP, % of control” (highest first): 16 of the entries above
gene | reagent no. | GFP, % of control | viability (ATP), % of control | Outcome
Tmem252 | 2 | 230 | 143 | active
Tmem252 | 3 | 156 | 73.7 | active
Or8k22 | 1 | 105 | 78.9 | inactive
Emid1 | 3 | 98 | 63.8 | inactive
Zfp212 | 1 | 97.5 | 137 | inactive
Tmem252 | 1 | 92.5 | 57.7 | inactive
Ghdc | 1 | 89.4 | 84.8 | inactive
Emid1 | 2 | 86 | 61 | inactive
Ghdc | 3 | 82.4 | 92.2 | inactive
Ghdc | 2 | 75.6 | 80.1 | inactive
Emid1 | 1 | 75.4 | 70.7 | inactive
Zfp212 | 2 | 73.5 | 106 | inactive
Ttc39a | 3 | 66.5 | 89.4 | inactive
Or8k22 | 2 | 65.4 | 68.3 | inactive
Ttc39a | 2 | 57.7 | 57 | inactive
Zfp212 | 3 | 49.5 | 48.3 | inactive
